Measurements as given in the supplement of paper PMC3334620.
The full ranking holds about 33,000 sequences; the median of “E-score (-0.5 to 0.5)” is about -8e-05, and the highest 2% start at about 0.23. This is one part of the list.

What follows are sequences tested against T1, Nrg2 (UniProt P38082) (assay: PBM E-score (8-mer binding enrichment) (E-score (-0.5 to 0.5)); higher = stronger / more preferred TF binding). Settings: protein concentration: 100 nM; construct: GST-full length.
T1 sequence: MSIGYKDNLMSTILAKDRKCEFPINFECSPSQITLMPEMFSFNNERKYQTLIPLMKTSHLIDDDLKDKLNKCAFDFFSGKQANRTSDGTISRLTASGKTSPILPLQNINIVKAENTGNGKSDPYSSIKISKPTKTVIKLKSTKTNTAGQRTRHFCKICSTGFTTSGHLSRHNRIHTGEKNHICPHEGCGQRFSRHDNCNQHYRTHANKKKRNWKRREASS
Description: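 Universal 'all 10-mer' protein binding microarrays (Agilent AMADID 015681) probed with GST-tagged S. cerevisiae TFs (full-length or DBD) made by in vitro transcription/translation (PURExpress), about 100-200 nM. Bound TF was detected with fluorescent anti-GST. Each ungapped 8-mer (which stands for itself and its reverse complement) is scored by the PBM enrichment score (E-score), a modified Wilcoxon-Mann-Whitney statistic from -0.5 to +0.5, computed with the Universal PBM Analysis Suite. Scale: above 0.35 generally sequence-specific binding.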

Going from GATACCTA to ATCATGAG, the “PBM E-score” value falls from 0.256 to 0.0545.

Going from CGTTTCTA to ATTTCGCC, the “PBM E-score” value rises from -0.0503 to 0.0633.

Going from CATGCCAG to GAAGGTGC, the “PBM E-score” value falls from -0.0766 to -0.137.

First: CGCTTAGA
Second: GTTCTCTA
The “PBM E-score” value of the first is higher: -0.0508 for the first, -0.154 for the second.

Compared with CATCGCCA, GATATCTA is lower in “PBM E-score” value: 0.103 for the first, 0.0972 for the second.

First: AAACCCTT
Second: AACTGGCC
The “PBM E-score” value of the first is higher: 0.0879 for the first, 0.0516 for the second.

First: CCAAGATA
Second: AGCGTTAT
The “PBM E-score” value of the first is higher: 0.00687 for the first, -0.0753 for the second.

Going from ACGATGTC to TCGATCGA, the “PBM E-score” value rises from 0.0434 to 0.162.

Compared with ACATTTAG, GCTCGCGA is higher in “PBM E-score” value: -0.279 for the first, 0.137 for the second.

First: GATAGGTA
Second: AATCCTGG
The “PBM E-score” value of the first is higher: 0.152 for the first, -0.0611 for the second.

Compared with CGCCGTGC, CCGTGAGG is lower in “PBM E-score” value: 0.0708 for the first, -0.22 for the second.

First: CGATACTC
Second: CCCAGGCA
The “PBM E-score” value of the first is higher: 0.0984 for the first, -0.222 for the second.

Going from AACGGCCG to AACCTCTC, the “PBM E-score” value falls from 0.139 to -0.0955.

Compared with AGACGTAC, TGTTAGAA is higher in “PBM E-score” value: -0.144 for the first, -0.0164 for the second.

Going from ACACCTAT to GTATAAAA, the “PBM E-score” value rises from 0.0366 to 0.153.

Compared with GCCTCTCA, CATCCCGA is higher in “PBM E-score” value: -0.107 for the first, -0.0993 for the second.

Going from GGCTGGGA to GGTTTCAC, the “PBM E-score” value rises from -0.2 to 0.098.

First: GTAACTTA
Second: TCGTTAGA
The “PBM E-score” value of the first is higher: 0.138 for the first, -0.162 for the second.

Going from ACGAGTGA to ACAACATG, the “PBM E-score” value rises from -0.0665 to 0.051.

Compared with ATGCGGAG, AGTTCTAT is higher in “PBM E-score” value: -0.173 for the first, -0.0788 for the second.

Compared with CTGTTGGC, ATATATTA is higher in “PBM E-score” value: -0.0852 for the first, 0.245 for the second.

First: GTGAACAC
Second: GGCGCGAA
The “PBM E-score” value of the first is lower: -0.2 for the first, 0.144 for the second.

First: AGTGACCA
Second: AGTAAGTG
The “PBM E-score” value of the first is higher: 0.0777 for the first, -0.0161 for the second.

First: TCTTAGCA
Second: ACACGCAC
The “PBM E-score” value of the first is lower: -0.0976 for the first, -0.0409 for the second.

Compared with ACACTGTG, AAAGGGGA is lower in “PBM E-score” value: -0.0298 for the first, -0.0462 for the second.

First: TCCGAACA
Second: CGCGCGAC
The “PBM E-score” value of the first is lower: -0.00282 for the first, 0.163 for the second.

First: CAGAAGGG
Second: CCGCCAGA
The “PBM E-score” value of the first is lower: -0.145 for the first, -0.0239 for the second.

First: ACGCCACG
Second: GACACACA
The “PBM E-score” value of the first is lower: -0.27 for the first, 0.0486 for the second.

Going from ATCCGCCC to CAGCAGCC, the “PBM E-score” value rises from -0.0028 to 0.0863.

Going from CCCATGCC to AACACCTA, the “PBM E-score” value falls from -0.0378 to -0.12.

First: CACGCAAC
Second: ACGGTCAC
The “PBM E-score” value of the first is higher: 0.196 for the first, -0.109 for the second.

Compared with GCTACCCC, CGTACCAC is higher in “PBM E-score” value: -0.182 for the first, -0.126 for the second.

Compared with CTAATTCC, AGTCACGG is lower in “PBM E-score” value: -0.0504 for the first, -0.0953 for the second.

Compared with AGGCGCAT, CACACGCC is lower in “PBM E-score” value: 0.0565 for the first, 0.0321 for the second.

Compared with CGCTTTGC, GTCTTCTA is lower in “PBM E-score” value: 0.0756 for the first, 0.0181 for the second.

Compared with CAAGCGCG, GGCTAATA is higher in “PBM E-score” value: 0.0189 for the first, 0.0596 for the second.

Compared with AGAAAGGG, CGAGATCC is lower in “PBM E-score” value: 0.0632 for the first, 0.0418 for the second.

Compared with ACAAGCTG, AGGAGGTG is lower in “PBM E-score” value: 0.143 for the first, -0.234 for the second.

Going from ATCGAGAA to GCGTAGCC, the “PBM E-score” value falls from 0.146 to -0.215.

Compared with CATGGTCA, CACCTAAA is lower in “PBM E-score” value: 0.236 for the first, -0.151 for the second.

First: AAGCAGTA
Second: CTGGCCGA
The “PBM E-score” value of the first is higher: -0.0813 for the first, -0.163 for the second.

Going from ACAATGGC to GTACTGAA, the “PBM E-score” value rises from 0.0291 to 0.118.

Compared with AGACTTGC, CGGATCCC is higher in “PBM E-score” value: -0.157 for the first, -0.0591 for the second.
